Source: PMC5353646, “Allosteric modulation of peroxisomal membrane protein recognition by farnesylation of the peroxisomal import receptor PEX19” (Nature Communications, 2017)
Results are given in words; binding and its absence hold for the method and conditions named. Blank lines part the entries; values can stand above or below the binder they belong to.

How the values were obtained:
[1] = target: non-farnesylated human PEX19 C-terminal domain (residues 161-299) (human) (UniProt P40855); experiment: NMR 15N relaxation (tumbling correlation time); local correlation times from the 15N R2/R1 ratio, 298 K, 750 MHz; both purified
[2] = target: farnesylated human PEX19 C-terminal domain (residues 161-299) (human) (UniProt P40855); experiment: as above

binding [1]: no binding
B1: non-farnesylated human PEX19 C-terminal domain (residues 161-299) (domain or fragment, UniProt P40855 161-299)
chain: GMDEGDGEGNILPIMQSIMQNLLSKDVLYPSLKEITEKYPEWLQSHRESLPPEQFEKYQEQHSVMCKICEQFEAETPTDSETTQKARFEMVLDLMQQLQDLGHPPKELAGEMPPGLNFDLDALNLSGPPGASGEQCLIM

binding [2]: no binding
B2: farnesylated human PEX19 C-terminal domain (residues 161-299) (domain or fragment, UniProt P40855 161-299)
chain: B1 chain
modifications: farnesyl group on Cys296 (CaaX box)
